From the supplement of paper PMC8256030 come the findings set out here.

Molecules are shown by their SMILES. Values joined by “and” are separate entries in the source; they are usually repeats but may differ in a detail not shown here. Equal entries are not always repeated. Structures can show the parent of a compound that is named as a salt. The list shows a part of the results. This data set is noisy: repeats of one test often differ as much as different tests do.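 HEK293T cells were given each compound shortly before transfection with a reporter in which red mCherry is followed by the SARS-CoV-2 frameshift element and then GFP in the −1 frame, so GFP appears only after frameshifting.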

The test system of this assay is SARS-CoV-2 -1 PRF reporter mCherry-FSE-GFP(-1). Kind of assay: mCherry (red) intensity as percent of control; higher = higher upstream reporter expression. Conditions: 10 µM; 24 h; HEK293T.
Take `Clc1ccccc1CN1CCc2sccc2C1`: the mCherry is 130%.

As for `COc1ccnc(C[S+]([O-])c2nc3cc(OC(F)F)ccc3[nH]2)c1OC` (stereo unspecified) [Pantoprazole], the mCherry was 96.9% and 102%.

Molecule `CNCCC(Oc1ccccc1OC)c1ccccc1` (stereo unspecified) [nisoxetine] had a mCherry of 122%.

Molecule `N[C@@H]1CCCCN(c2c(F)cc3c(=O)c(C(=O)O)cn(C4CC4)c3c2Cl)C1` [Besifloxacin] yielded a mCherry of 83%.

On to `COc1cc(C2Oc3cc([C@H]4Oc5cc(O)cc(O)c5C(=O)[C@@H]4O)ccc3OC2CO)ccc1O` (stereo partly specified) [silibinin], for which the mCherry was 102%.

Take `COc1cc(C(=O)N2CCOCC2)cc(OC)c1OC` [trimetozine]: the mCherry amounted to 99.8%.

Regarding `Cc1[nH+]cc(COP(=O)([O-])[O-])c(CN(CCN(CC(=O)[O-])Cc2c(COP(=O)([O-])O)c[nH+]c(C)c2O)CC(=O)[O-])c1O.[Mn].[Na+].[Na+].[Na+]`, the mCherry was 114%.

Turning to `CCCOc1ccccc1-c1nc2[nH]nnc2c(=O)[nH]1` [Zaprinast], the mCherry was found to be 72.5%.

`COC(=O)Nc1nc2cc([S+]([O-])c3ccccc3)ccc2[nH]1` (stereo unspecified) [oxfendazole] displayed a mCherry of 105%.

`N=C(NCCCCCCNC(=N)NC(=N)Nc1ccc(Cl)cc1)NC(=N)Nc1ccc(Cl)cc1` [Chlorhexidine] showed a mCherry of 99.5%.

The molecule `Cc1cc(C)nc(NS(=O)(=O)c2ccc(N)cc2)n1` [sulfadimidine] had a mCherry of 107%.

The molecule `C=C1CCN([C@H](C)[C@](O)(Cn2cncn2)c2ccc(F)cc2F)CC1` [Efinaconazole] had a mCherry of 102%.

For the molecule `CN1C(C(=O)Nc2ccccn2)=C(O)c2ccccc2S1(=O)=O` [piroxicam], the mCherry came to 98.6%.

`NCc1ccccc1CC(=O)N[C@@H]1C(=O)N2C(C(=O)O)=C(CSc3nnnn3CC(=O)O)CS[C@H]12` [Ceforanide] displayed a mCherry of 76.2%.

The molecule `CC[C@@H]([C@H](C)O)n1ncn(-c2ccc(N3CCN(c4ccc(OC[C@@H]5CO[C@@](Cn6cncn6)(c6ccc(F)cc6F)C5)cc4)CC3)cc2)c1=O` [Posaconazole] displayed a mCherry of 103%.

Turning to `CC(C)Oc1ccc2c(=O)c(-c3ccccc3)coc2c1`, the mCherry stood at 90.6%.

The molecule `C1CNCCN1` returned a mCherry of 97.4%.

The molecule `C=CC[N+]1([C@H]2C[C@H]3[C@@H]4CC[C@H]5C[C@H](O)[C@@H](N6CCOCC6)C[C@]5(C)[C@H]4CC[C@]3(C)[C@H]2OC(C)=O)CCCC1` [rocuronium bromide] showed a mCherry of 91%.

The molecule `NC(=O)C(=O)N/N=C/c1ccc([N+](=O)[O-])o1` [nifuraldezone] had a mCherry of 105%.

`O=S(=O)([O-])NC1CCCCC1.[Na+]` [sodium cyclamate] returned a mCherry of 78.1%.

Consider `N[C@@H]1C[C@H]1c1ccccc1.N[C@H]1C[C@@H]1c1ccccc1` [Tranylcypromine], for which the mCherry is 86% and 88.3%.

For `CC/N=C(\NCC)NCCCC[C@H](NC(=O)[C@H](CC(C)C)NC(=O)[C@@H](CCCCN/C(=N/CC)NCC)NC(=O)[C@H](Cc1ccc(O)cc1)NC(=O)[C@H](CO)NC(=O)[C@@H](Cc1cccnc1)NC(=O)[C@@H](Cc1ccc(Cl)cc1)NC(=O)[C@@H](Cc1ccc2ccccc2c1)NC(C)=O)C(=O)N1CCC[C@H]1C(=O)N[C@H](C)C(N)=O` [Ganirelix], the mCherry worked out at 47%.

`Nc1nc(F)nc2c1ncn2[C@@H]1O[C@H](COP(=O)(O)O)[C@@H](O)[C@@H]1O` came in with a mCherry of 140%.

The molecule `CC(=O)SC[C@@H](C)C(=O)N1CCC[C@H]1C(=O)N[C@@H](Cc1ccccc1)C(=O)O` [alacepril] showed a mCherry of 84.3%.

For the molecule `Cc1ccccc1OCC(O)CNCCOc1ccc(C(N)=O)cc1` (stereo unspecified) [tolamolol], the mCherry is 89.5%.

On to `CC[C@@]1(O)C(=O)OCc2c1cc1n(c2=O)Cc2cc3c(CN(C)C)c(O)ccc3nc2-1` [Topotecan·HCl], for which the mCherry is 21%.

The molecule `COc1ccc(-c2cc(=S)ss2)cc1` [Anethole-trithione] registered a mCherry of 105%.

`CN[C@H](CC(C)C)C(=O)N[C@H]1C(=O)N[C@@H](CC(N)=O)C(=O)N[C@H]2C(=O)N[C@H]3C(=O)N[C@H](C(=O)N[C@H](C(=O)O)c4cc(O)cc(O)c4-c4cc3ccc4O)[C@H](O)c3ccc(c(Cl)c3)Oc3cc2cc(c3O[C@@H]2O[C@H](CO)[C@@H](O)[C@H](O)[C@H]2O[C@H]2C[C@](C)(N)[C@H](O)[C@H](C)O2)Oc2ccc(cc2Cl)[C@H]1O` [Vancocin] yielded a mCherry of 106%.

`CCCCCCCCCCCCCCCC(=O)NCCC[N+](C)(C)CC(=O)[O-]` [pendecamaine] displayed a mCherry of 116%.

Consider `CC1CC(OC(=O)C(O)c2ccccc2)CC(C)(C)C1` (stereo unspecified) [cyclandelate], for which the mCherry came out at 104%.

For `O=C1c2ccccc2S(=O)(=O)N1CCCN1CCN(c2ncccn2)CC1` [revospirone], the mCherry came out at 75%.
